{"source": "PubChem BioAssay AID602196 – INSERM – 2012", "screen": "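Knock-downs that protect lung cancer cells from cisplatin or sensitise them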", "cells": "human A549 lung cancer cells", "reagents": "siRNA pair against human genes", "timing": "48 h transfection before cisplatin; time from cisplatin to read-out not stated", "treatment": "cisplatin at a dose killing half of control-siRNA cells; exact dose and duration not given", "detection": "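Cisplatin cell death as a shift from the 50% death seen with control siRNA; siRNAs toxic or growth-blocking alone scored 0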", "reading the numbers": "two-siRNA summed score (-2 to +2): higher = both siRNAs protect from cisplatin killing; -2 means both sensitise; mean protection from cisplatin (shift in death): higher = protection from cisplatin killing", "hit rule": "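Each siRNA scores 0 if harmful alone by LDH or WST-1, otherwise +1 if it reduces and -1 if it increases cisplatin killing; a gene is active when both siRNAs agree (sum +2 or -2)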", "calls": "active = both siRNAs shift cisplatin killing the same way; inactive = no consistent shift, or siRNA harmful alone", "note": "This is a random part of about 23,000 reagents tested. 455 of them (2%) were called active. 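Active includes both protection and sensitisation; some change values fall well beyond the stated -50 to +50 range.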 Further read-outs or replicates are left out here. Not stated in the record: the amount of reagent."}
{"target":"MIOX","two-siRNA summed score (-2 to +2)":0,"mean protection from cisplatin (shift in death) (%)":-0.8,"Call":"inactive"}
{"target":"LOC440026","two-siRNA summed score (-2 to +2)":1,"mean protection from cisplatin (shift in death) (%)":13,"Call":"inactive"}
{"target":"PEX12","two-siRNA summed score (-2 to +2)":-1,"mean protection from cisplatin (shift in death) (%)":10.2,"Call":"inactive"}
{"target":"PRSS21","two-siRNA summed score (-2 to +2)":-1,"mean protection from cisplatin (shift in death) (%)":-33.3,"Call":"inactive"}
{"target":"GALNT9","two-siRNA summed score (-2 to +2)":0,"mean protection from cisplatin (shift in death) (%)":0.2,"Call":"inactive"}
{"target":"LINC03066","two-siRNA summed score (-2 to +2)":0,"mean protection from cisplatin (shift in death) (%)":27.8,"Call":"inactive"}
{"target":"LOC441227","two-siRNA summed score (-2 to +2)":1,"mean protection from cisplatin (shift in death) (%)":17.7,"Call":"inactive"}
{"target":"CHGA","two-siRNA summed score (-2 to +2)":0,"mean protection from cisplatin (shift in death) (%)":-7.1,"Call":"inactive"}
{"target":"LINC02911","two-siRNA summed score (-2 to +2)":0,"mean protection from cisplatin (shift in death) (%)":-2.4,"Call":"inactive"}
{"target":"CNNM4","two-siRNA summed score (-2 to +2)":0,"mean protection from cisplatin (shift in death) (%)":4.4,"Call":"inactive"}
{"target":"GDA","two-siRNA summed score (-2 to +2)":1,"mean protection from cisplatin (shift in death) (%)":10.2,"Call":"inactive"}
{"target":"MTF1","two-siRNA summed score (-2 to +2)":1,"mean protection from cisplatin (shift in death) (%)":10.5,"Call":"inactive"}
{"target":"FBP1","two-siRNA summed score (-2 to +2)":-2,"mean protection from cisplatin (shift in death) (%)":-17.6,"Call":"active"}
{"target":"PPM1M","two-siRNA summed score (-2 to +2)":1,"mean protection from cisplatin (shift in death) (%)":16.7,"Call":"inactive"}
{"target":"TBC1D32","two-siRNA summed score (-2 to +2)":1,"mean protection from cisplatin (shift in death) (%)":13.9,"Call":"inactive"}
{"target":"LOC400782","two-siRNA summed score (-2 to +2)":0,"mean protection from cisplatin (shift in death) (%)":17.2,"Call":"inactive"}
{"target":"LOC441894","two-siRNA summed score (-2 to +2)":1,"mean protection from cisplatin (shift in death) (%)":11.2,"Call":"inactive"}
{"target":"EP300","two-siRNA summed score (-2 to +2)":0,"mean protection from cisplatin (shift in death) (%)":-11.7,"Call":"inactive"}
{"target":"LINC00315","two-siRNA summed score (-2 to +2)":0,"mean protection from cisplatin (shift in death) (%)":28.8,"Call":"inactive"}
{"target":"LOC401387","two-siRNA summed score (-2 to +2)":0,"mean protection from cisplatin (shift in death) (%)":-0.1,"Call":"inactive"}
{"target":"RPA2","two-siRNA summed score (-2 to +2)":0,"mean protection from cisplatin (shift in death) (%)":-24.9,"Call":"inactive"}
{"target":"DLL4","two-siRNA summed score (-2 to +2)":-1,"mean protection from cisplatin (shift in death) (%)":-3.5,"Call":"inactive"}
{"target":"CYP4F12","two-siRNA summed score (-2 to +2)":0,"mean protection from cisplatin (shift in death) (%)":6.1,"Call":"inactive"}
{"target":"BET1L","two-siRNA summed score (-2 to +2)":0,"mean protection from cisplatin (shift in death) (%)":19,"Call":"inactive"}
{"target":"LOC401740","two-siRNA summed score (-2 to +2)":0,"mean protection from cisplatin (shift in death) (%)":0.4,"Call":"inactive"}
{"target":"KNSTRN","two-siRNA summed score (-2 to +2)":0,"mean protection from cisplatin (shift in death) (%)":1.3,"Call":"inactive"}
{"target":"OPRK1","two-siRNA summed score (-2 to +2)":-1,"mean protection from cisplatin (shift in death) (%)":3.3,"Call":"inactive"}
{"target":"RESF1","two-siRNA summed score (-2 to +2)":-1,"mean protection from cisplatin (shift in death) (%)":-6.7,"Call":"inactive"}
{"target":"SLC16A4","two-siRNA summed score (-2 to +2)":0,"mean protection from cisplatin (shift in death) (%)":6,"Call":"inactive"}
{"target":"DTD2","two-siRNA summed score (-2 to +2)":0,"mean protection from cisplatin (shift in death) (%)":-3.5,"Call":"inactive"}
{"target":"CCNL1","two-siRNA summed score (-2 to +2)":0,"mean protection from cisplatin (shift in death) (%)":11.9,"Call":"inactive"}

A few values from the list.
LINC00315, two-siRNA summed score (-2 to +2): 0
Under “two-siRNA summed score (-2 to +2)”, LOC440026 is entered as 1
DTD2, two-siRNA summed score (-2 to +2): 0
For “two-siRNA summed score (-2 to +2)”, LOC441227 has 1
